# Test results taken from PubChem BioAssay AID504444 (National Center for Advancing Translational Sciences (NCATS), 2011).
# Out of some 360,000 compounds screened, about 7,500 (2.1%) were called active. The shares of active, inactive and inconclusive entries below differ from those in the screen. Calls follow the shape of the dose curve; as a rule, active = well fitted inhibition curve with a large enough effect; inconclusive = small, poorly fitted or top-dose-only effect, or effect the other way; inactive = flat fitted curve, though single readings scatter. Where the call is inconclusive, the potency comes from a doubtful curve fit.
# Assay: Nrf2 qHTS screen for inhibitors; also: nearly all actives have a fitted effect of over 60% in size
# Conditions: A549 ARE-Fluc reporter, luciferase luminescence, 18-24 h; activity change, negative = inhibition: at 46 µM (top of the series)
# Procedure, shortened: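 Concentration-response testing used A549 ARE_Fluc cells at 5000 cells/well. Following an 18-24 h compound incubation, viability was read by fluorescence (Ex 405/Em 525) and luciferase output by luminescence.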
# % is scaled to controls: 0 for no effect and ±100 for the full control effect; potency is read from the fitted curve at half-maximal effect.
Compound,Potency,"activity change, negative = inhibition"
Cc1cccc(NC(=O)c2ccc([N+](=O)[O-])s2)c1C,inactive,
COc1cc(/C=N/NC(=O)CSc2ccccn2)ccc1OC(C)C,"inconclusive: 14.6 µM [activator, single point]",
COc1cccc(-c2ccc(C#N)c(OC(=O)c3ccc(Cl)cc3)n2)c1,inactive,
COCC(=O)Nc1cc(Cl)ccc1C,inactive,
O=C(c1ccc(NS(=O)(=O)c2cccs2)cc1)N1CCN(c2ccccc2Cl)CC1,"inconclusive: 18.4 µM [activator, single point]",
Cc1ccc(-n2c(C)cc(C(=O)CSc3nnc4ccccn34)c2C)cc1,"inconclusive: 0.82 µM [activator, full curve]",
C[C@H](CO)N1C[C@H](C)[C@@H](CN(C)C(=O)Nc2ccc(C(F)(F)F)cc2)Oc2c(NC(=O)NC3CCCCC3)cccc2C1=O,"inconclusive: 29.1 µM [falling, single point]",
CCN1C(=O)c2cccc3c(S(=O)(=O)Nc4ccccn4)ccc1c23,"inconclusive: 7.31 µM [falling, partial curve]",
CCc1cccc(NC(=O)c2nc(-c3ccncc3)no2)c1,"inconclusive: 3.26 µM [activator, partial curve]",
O=C(Cn1nc(C(=O)O)c2ccccc2c1=O)Nc1cccc(S(=O)(=O)N2CCCC2)c1,"inconclusive: 23.1 µM [falling, partial curve, poor fit]",
CCOc1ccc(NC(=O)Nc2cc(C(C)C)c(O)cc2C)cc1,"inconclusive: 1.3 µM [falling, partial curve, poor fit]",
Cc1ccc(OCC(=O)Nc2oc(-c3ccccc3)c(-c3ccccc3)c2C#N)cc1,"inconclusive: 29.1 µM [falling, single point]",
O=C(Nc1nnc(SCc2c(Cl)cccc2Cl)s1)c1cccc([N+](=O)[O-])c1,"inconclusive: 18.4 µM [falling, partial curve]",
CCOC(=O)Cc1nnc2c(Nc3ccccc3F)nc3nonc3n12,"inconclusive: 29.1 µM [falling, single point]",
Cc1cccc(C)c1NC(=O)C(c1ccc(Cl)cc1Cl)N1CCCCC1 (stereo unspecified),"inconclusive: 6.51 µM [falling, partial curve, poor fit]",
CCOc1ccc(NS(=O)(=O)c2cc(NC(=O)c3ccc(C)cc3)ccc2Cl)cc1,"inconclusive: 20.6 µM [falling, single point]",
COc1ccc(N(C)S(=O)(=O)c2cccc(C(=O)OCC(=O)c3c(N)n(C)c(=O)n(C)c3=O)c2)cc1,active: 20.6 µM,
CCOC(=O)Cc1nnc(NC(=O)c2ccccc2OCC)s1,"inconclusive: 2.91 µM [falling, full curve, poor fit]",
O=C(c1cc(S(=O)(=O)N2CCOCC2)ccc1F)N(Cc1nnc(-c2ccccc2Cl)o1)C1CC1,inactive,
CCc1ccccc1NC(=O)C(NS(=O)(=O)c1ccc2c(c1)CCC(=O)N2)c1ccccc1 (stereo unspecified),inactive,
O=C(Cc1sc(Nc2ccccc2)nc1-c1ccccc1)NCc1ccccn1,"inconclusive: 2.91 µM [activator, full curve]",
C=C(C)CN(CC)C(=O)COc1ccc(S(=O)(=O)Nc2ccc(OC)cc2)cc1,"inconclusive: 25.9 µM [falling, single point]",

Compound,Potency,"activity change, negative = inhibition"
Cc1ccc(OCC(=O)NCc2ccccc2)c([N+](=O)[O-])n1,"inconclusive: 29.1 µM [activator, single point]",
Cc1sc(NC(=O)c2c(F)cccc2F)nc1-c1ccccc1,"inconclusive: 14.6 µM [falling, partial curve]",
CC1Cc2ccccc2N1C(=O)c1ccc(N2CCCCC2)c([N+](=O)[O-])c1 (stereo unspecified),active: 23.1 µM,
CCOc1ccccc1C(=O)NC1CCN(CC(=O)Nc2cc(OC)ccc2OC)CC1,active: 23.1 µM,
O=C(CN(c1ccc(F)cc1)S(=O)(=O)c1ccc2c(c1)OCCO2)NCc1ccccc1,"inconclusive: 23.1 µM [falling, single point]",
CN(C)c1ccc(CNC(=O)CCC(=O)N2Cc3ccccc3Oc3ncccc32)cc1,"inconclusive: 29.1 µM [activator, single point]",
CCOC(=O)CCc1c(C)n(CC)c2cc(-c3ccccc3OC)nn2c1=O,inactive,
CC(NC(=O)CN(C)CC(=O)Nc1ccc(Cl)c(C(F)(F)F)c1)c1ccccc1 (stereo unspecified),"inconclusive: 29.1 µM [falling, single point]",
CCOc1ccccc1NC(=O)CN(CCc1ccccc1)S(=O)(=O)c1ccc(C)cc1,inactive,
Cc1cn(-c2cccnc2)c(C)c1CNC[C@H]1O[C@@H](n2cnc3c(N)ncnc32)[C@H](O)[C@@H]1O,inactive,
CCc1cccc(C)c1NC(=O)CN1C(=O)c2c(c3ccccc3n2C)C1c1ccc(OC)cc1 (stereo unspecified),inactive,
CN(C)S(=O)(=O)N(CCN1CCOCC1)Cc1ccccc1F,"inconclusive: 32.6 µM [activator, single point]",
C=CCN1C=C/C(=C\C=C(C#N)C#N)c2ccccc21,"inconclusive: 14.6 µM [falling, partial curve]",
CCc1ccc(C(=O)c2cnc3ccc(C)cc3c2S(=O)(=O)c2ccc(OC)cc2)cc1,"inconclusive: 1.3 µM [activator, full curve, poor fit]",
CCc1ccc(S(=O)(=O)NCc2cn3cccc(C)c3n2)s1,"inconclusive: 29.1 µM [falling, single point]",
Cn1c(N)c(C(=O)CSc2n[nH]c(N)n2)c(=O)n(C)c1=O,"inconclusive: 25.9 µM [activator, single point]",
O=C(Nc1ccc(-c2cn3c(n2)SCC3)cc1)c1ccc2ccccc2n1,"inconclusive: 29.1 µM [falling, single point]",
CCCCc1ccc(C(=O)Nc2ccc3nc(N(CC)CC)cc(C)c3c2)cc1,,inactive: 5.11% [at 9.27 µM]
FC(F)(F)c1cnc(NNC(=S)Nc2ccccc2Cl)c(Cl)c1,"inconclusive: 29.1 µM [falling, single point]",
O=c1cc(-c2cccs2)oc2ccc(Cl)cc12,"inconclusive: 11.6 µM [activator, partial curve, poor fit]",
O=C(CCCn1c(=O)c2sccc2n(Cc2ccc(F)cc2Cl)c1=O)NCc1ccc2c(c1)OCO2,"inconclusive: 16.4 µM [falling, partial curve, poor fit]",
CC1(CCc2ccc3c(c2)OCO3)NC(=O)c2ccccc2N1 (stereo unspecified),inactive,

# Entries above that have a cyano group, in the order listed:
Compound,Potency,"activity change, negative = inhibition"
COc1cccc(-c2ccc(C#N)c(OC(=O)c3ccc(Cl)cc3)n2)c1,inactive,
Cc1ccc(OCC(=O)Nc2oc(-c3ccccc3)c(-c3ccccc3)c2C#N)cc1,"inconclusive: 29.1 µM [falling, single point]",
C=CCN1C=C/C(=C\C=C(C#N)C#N)c2ccccc21,"inconclusive: 14.6 µM [falling, partial curve]",

# (more compounds)

Compound,Potency,"activity change, negative = inhibition"
CCOC(=O)c1nc(N2CCN(C(=O)OCC)CC2)c2c3c(sc2n1)CCCC3,active: 25.9 µM,
O=[N+]([O-])c1ccc(C2CCCC/C2=N\OCc2cccc(F)c2)c([N+](=O)[O-])c1 (stereo unspecified),inactive,
Nc1c(NC2CCCCC2)c2ccccc2oc1=O,inactive,
Cc1ccc(N/C=C(/C#N)c2ccsc2)cc1C,"inconclusive: 2.06 µM [activator, full curve]",
Cc1ccc(-c2nnn(CC(=O)Nc3ccccc3-c3ccccc3)n2)c(-n2cnnn2)c1,inactive,
O=c1c(-c2ccc(Cl)cc2)[n+]([O-])c2ccccc2n1OCc1nc2ccccc2[nH]1,"inconclusive: 2.31 µM [activator, full curve]",
Brc1c(-c2ccc3c(c2)OCO3)nc2ncccn12,"inconclusive: 16.4 µM [activator, partial curve]",
COc1ccc(NC(=O)c2cc(CN3C(=O)c4ccccc4C3=O)ccc2OC)cn1,"inconclusive: 16.4 µM [falling, partial curve, poor fit]",
CCCCn1c(CNC(=O)C23CC4CC(CC(C4)C2)C3)nnc1SCC(=O)Nc1ccccc1,"inconclusive: 23.1 µM [falling, partial curve]",
Oc1c(Cl)cc(CN2CCOCC2)c2cccnc12,"inconclusive: 16.4 µM [falling, single point]",
CC(C)CCOc1ccc(C(=O)NCCC(=O)N2CCOCC2)cc1,"inconclusive: 0.58 µM [activator, partial curve, poor fit]",
CN1c2ccc(Cl)cc2-c2nc(SCC(=O)Nc3cc(F)ccc3F)ncc2S1(=O)=O,"inconclusive: 13 µM [falling, partial curve, poor fit]",
COc1ccccc1NC(=O)NCC(=O)Nc1ccc(F)c(F)c1,"inconclusive: 23.1 µM [falling, partial curve]",
Cc1cccc(N2C(=O)CS(=O)(=O)C23C(=O)N(C)c2ccccc23)c1 (stereo unspecified),inactive,
CCNC(=O)c1cnc2sc(N3CCC(C)CC3)nn2c1=O,"inconclusive: 20.6 µM [activator, partial curve, poor fit]",
O=C(CCN1CCN(Cc2ccccc2)CC1)Nc1cccc(Cl)c1,"inconclusive: 4.61 µM [falling, full curve, poor fit]",
COc1ccc(CNC(=O)Cn2nc(C(F)(F)F)c(Br)c2C)cc1,inactive,
Cc1ccc(NC(=O)CSc2nn(-c3ccccc3)c(=S)s2)cc1S(=O)(=O)N(C)C,active: 5.8 µM,
CCCCCCC(=O)N1C/C=C\C(c2ccc(OC)cc2)N(Cc2ccc(F)cc2)C(=O)[C@H]1Cc1ccccc1 (stereo partly specified),"inconclusive: 29.1 µM [falling, single point]",
Cc1ccc2c(c1)N(C(=O)N1CCC(C(=O)NCCC3=CCCCC3)CC1)CC(C)O2 (stereo unspecified),"inconclusive: 29.1 µM [activator, single point]",
Cc1c(C(=O)N2CCCC2)oc2c1-c1nn(CC(=O)NCc3cccc(F)c3)cc1CC2,"inconclusive: 29.1 µM [falling, single point]",
O=C(NCc1ccco1)c1ccc2c(=O)n(CC3CCCO3)c(=S)[nH]c2c1 (stereo unspecified),"inconclusive: 23.1 µM [falling, single point]",
